PubChem BioAssay AID1259405 | NCATS – 2018

Test: 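Mouse-designed siRNAs used to find CHO productivity engineering targets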 (primary screen)
Cells: Chinese hamster CHO-K1 ovary cells with stable secreted eGFP expression
Knock-down reagent: single siRNA against mouse genes, 0.8 pmol siRNA per well (2 µl of 400 nM stock)
Duration: 3 days
Detection: 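Percent of the per-plate non-targeting control median for intracellular GFP per well by laser scanning cytometry and for cell viability by ATP luminescence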
Scale: GFP, % of control: higher = more GFP per well, higher productivity; viability (ATP), % of control: higher = more viable cells (more ATP)
Active means: 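Called active when intracellular GFP, relative to negative control, is at or above 120%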
Shown is a random part of about 50,000 reagents tested. About 4,000 of all reagents (8%) count as active. 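Mouse siRNA library applied to hamster cells; one well for each siRNA.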 The numbers tell different reagents against one gene apart. Reagent sequences are not shown.

gene | siRNA no. | GFP, % of control | viability (ATP), % of control | activity call
Or8g28 (olfactory receptor family 8 subfamily G member 28) | 1 | 81.3 | 69.6 | inactive
Or8g28 (olfactory receptor family 8 subfamily G member 28) | 2 | 82.1 | 77.2 | inactive
Or8g28 (olfactory receptor family 8 subfamily G member 28) | 3 | 71.6 | 69.7 | inactive
Ceacam14 (CEA cell adhesion molecule 14) | 1 | 78.4 | 63.6 | inactive
Ceacam14 (CEA cell adhesion molecule 14) | 2 | 81.8 | 59.1 | inactive
Ceacam14 (CEA cell adhesion molecule 14) | 3 | 97.8 | 89.7 | inactive
Nphs1 (nephrosis 1, nephrin) | 1 | 83.1 | 92.1 | inactive
Nphs1 (nephrosis 1, nephrin) | 2 | 41 | 48.1 | inactive
A730020M07Rik (RIKEN cDNA A730020M07 gene) | 1 | 230 | 69.6 | active
A730020M07Rik (RIKEN cDNA A730020M07 gene) | 2 | 67 | 56.2 | inactive
A730020M07Rik (RIKEN cDNA A730020M07 gene) | 3 | 74.2 | 89.5 | inactive
Nt5e (5' nucleotidase, ecto) | 1 | 122 | 124 | active
Nt5e (5' nucleotidase, ecto) | 2 | 66.5 | 67.6 | inactive
Nt5e (5' nucleotidase, ecto) | 3 | 82.6 | 93.9 | inactive
Haus6 (HAUS augmin-like complex, subunit 6) | 1 | 29 | 49.3 | inactive
Haus6 (HAUS augmin-like complex, subunit 6) | 2 | 78.1 | 77.9 | inactive
Haus6 (HAUS augmin-like complex, subunit 6) | 3 | 101 | 118 | inactive
Atp1b2 (ATPase, Na+/K+ transporting, beta 2 polypeptide) | 1 | 93 | 79.7 | inactive
Atp1b2 (ATPase, Na+/K+ transporting, beta 2 polypeptide) | 2 | 39.5 | 49.9 | inactive
Atp1b2 (ATPase, Na+/K+ transporting, beta 2 polypeptide) | 3 | 98.2 | 78.4 | inactive
Bscl2 (BSCL2 lipid droplet biogenesis associated, seipin) | 1 | 98.2 | 84 | inactive
Bscl2 (BSCL2 lipid droplet biogenesis associated, seipin) | 2 | 54.5 | 68.7 | inactive
Bscl2 (BSCL2 lipid droplet biogenesis associated, seipin) | 3 | 142 | 132 | active
Cd200 (CD200 molecule) | 1 | 35.9 | 22.8 | inactive
Cd200 (CD200 molecule) | 2 | 61 | 79.2 | inactive
Cd200 (CD200 molecule) | 3 | 68.9 | 86.2 | inactive
Mageb3 (MAGE family member B3) | 1 | 74.2 | 50.4 | inactive
Mageb3 (MAGE family member B3) | 2 | 45.2 | 64 | inactive
Mageb3 (MAGE family member B3) | 3 | 75.7 | 71.4 | inactive
Cck (cholecystokinin) | 1 | 33.2 | 39 | inactive
Cck (cholecystokinin) | 2 | 47.8 | 36.8 | inactive
Cck (cholecystokinin) | 3 | 64.2 | 68.8 | inactive
Cdc50b (cell division cycle 50 P4-ATPase accessory subunit B) | 1 | 85.6 | 78.7 | inactive
Cdc50b (cell division cycle 50 P4-ATPase accessory subunit B) | 2 | 60.6 | 93.9 | inactive
Cdc50b (cell division cycle 50 P4-ATPase accessory subunit B) | 3 | 23.6 | 117 | inactive
Adgrb3 (adhesion G protein-coupled receptor B3) | 1 | 139 | 96.5 | active
Adgrb3 (adhesion G protein-coupled receptor B3) | 2 | 57.2 | 59 | inactive
Adgrb3 (adhesion G protein-coupled receptor B3) | 3 | 85.5 | 62.6 | inactive
Wwtr1 (WW domain containing transcription regulator 1) | 1 | 149 | 95 | active
Wwtr1 (WW domain containing transcription regulator 1) | 2 | 108 | 86.3 | inactive
Wwtr1 (WW domain containing transcription regulator 1) | 3 | 137 | 86.3 | active
Or4k15b (olfactory receptor family 4 subfamily K member 15B) | 1 | 52.3 | 60.1 | inactive
Or4k15b (olfactory receptor family 4 subfamily K member 15B) | 2 | 114 | 75.3 | inactive
Or4k15b (olfactory receptor family 4 subfamily K member 15B) | 3 | 70.2 | 106 | inactive
Zfp768 (zinc finger protein 768) | 1 | 63.4 | 62.8 | inactive
Zfp768 (zinc finger protein 768) | 2 | 63.2 | 67.6 | inactive
Zfp768 (zinc finger protein 768) | 3 | 70.2 | 88.7 | inactive
Ccdc80 (coiled-coil domain containing 80) | 1 | 129 | 83.1 | active
Ccdc80 (coiled-coil domain containing 80) | 2 | 44.1 | 34 | inactive
Ccdc80 (coiled-coil domain containing 80) | 3 | 79.1 | 99.2 | inactive
Pde4d (phosphodiesterase 4D, cAMP specific) | 1 | 126 | 66.3 | active
Pde4d (phosphodiesterase 4D, cAMP specific) | 2 | 86.5 | 74.6 | inactive
Pde4d (phosphodiesterase 4D, cAMP specific) | 3 | 76.3 | 74 | inactive
Echs1 (enoyl Coenzyme A hydratase, short chain, 1, mitochondrial) | 1 | 92.6 | 62.7 | inactive
Echs1 (enoyl Coenzyme A hydratase, short chain, 1, mitochondrial) | 2 | 106 | 68.1 | inactive
Echs1 (enoyl Coenzyme A hydratase, short chain, 1, mitochondrial) | 3 | 88.3 | 60.4 | inactive
Krt8 (keratin 8) | 1 | 86.5 | 95 | inactive
Krt8 (keratin 8) | 2 | 81 | 85.4 | inactive
Rsad1 (radical S-adenosyl methionine domain containing 1) | 1 | 79.5 | 80.7 | inactive
Rsad1 (radical S-adenosyl methionine domain containing 1) | 2 | 35.4 | 42.8 | inactive
Rsad1 (radical S-adenosyl methionine domain containing 1) | 3 | 67.6 | 59.5 | inactive
Sesn3 (sestrin 3) | 1 | 62.4 | 45.1 | inactive
Sesn3 (sestrin 3) | 2 | 85.5 | 90.4 | inactive
Sesn3 (sestrin 3) | 3 | 47.8 | 58.4 | inactive
Htr1a (5-hydroxytryptamine (serotonin) receptor 1A) | 1 | 115 | 97.6 | inactive
Htr1a (5-hydroxytryptamine (serotonin) receptor 1A) | 2 | 103 | 76.3 | inactive
Htr1a (5-hydroxytryptamine (serotonin) receptor 1A) | 3 | 68.8 | 97.4 | inactive
Piwil2 (piwi-like RNA-mediated gene silencing 2) | 1 | 77.4 | 68.7 | inactive
Piwil2 (piwi-like RNA-mediated gene silencing 2) | 2 | 95.6 | 91.7 | inactive
Piwil2 (piwi-like RNA-mediated gene silencing 2) | 3 | 94 | 76.3 | inactive
Srek1ip1 | 1 | 75.2 | 88.2 | inactive
Srek1ip1 | 2 | 73.7 | 94.9 | inactive
Srek1ip1 | 3 | 65.4 | 45.7 | inactive
Csnk2a2ip (casein kinase 2, alpha prime interacting protein) | 1 | 64.9 | 72.2 | inactive
Csnk2a2ip (casein kinase 2, alpha prime interacting protein) | 2 | 15.1 | 23.6 | inactive
Csnk2a2ip (casein kinase 2, alpha prime interacting protein) | 3 | 89.8 | 106 | inactive
Pon2 (paraoxonase 2) | 1 | 62.7 | 72.6 | inactive
Pon2 (paraoxonase 2) | 2 | 98.6 | 97.1 | inactive
Pon2 (paraoxonase 2) | 3 | 54.7 | 61.3 | inactive
Gab3 (growth factor receptor bound protein 2-associated protein 3) | 1 | 72 | 77.9 | inactive
Gab3 (growth factor receptor bound protein 2-associated protein 3) | 2 | 68 | 75.7 | inactive
Gab3 (growth factor receptor bound protein 2-associated protein 3) | 3 | 189 | 132 | active
Bri3bp (Bri3 binding protein) | 1 | 48.7 | 99.3 | inactive
Bri3bp (Bri3 binding protein) | 2 | 76.9 | 73.4 | inactive
Bri3bp (Bri3 binding protein) | 3 | 132 | 131 | active

Reagents listed so far called active:
gene | siRNA no. | GFP, % of control | viability (ATP), % of control | activity call
A730020M07Rik (RIKEN cDNA A730020M07 gene) | 1 | 230 | 69.6 | active
Nt5e (5' nucleotidase, ecto) | 1 | 122 | 124 | active
Bscl2 (BSCL2 lipid droplet biogenesis associated, seipin) | 3 | 142 | 132 | active
Adgrb3 (adhesion G protein-coupled receptor B3) | 1 | 139 | 96.5 | active
Wwtr1 (WW domain containing transcription regulator 1) | 1 | 149 | 95 | active
Wwtr1 (WW domain containing transcription regulator 1) | 3 | 137 | 86.3 | active
Ccdc80 (coiled-coil domain containing 80) | 1 | 129 | 83.1 | active
Pde4d (phosphodiesterase 4D, cAMP specific) | 1 | 126 | 66.3 | active
Gab3 (growth factor receptor bound protein 2-associated protein 3) | 3 | 189 | 132 | active
Bri3bp (Bri3 binding protein) | 3 | 132 | 131 | active
